Experimental findings from paper PMC13324451 (The Journal of Biological Chemistry, 2026) are described below.

These are yes or no findings as the source states them, for the method shown. Binding seen in cells or lysates may run through a third protein. A yes stands for co-enrichment or nearness to the bait. Other partners may have been found. Where a sequence is shown, tags or fusion partners need not be part of it.

The target of this assay is T1, VgrG3 with a C-terminal haemagglutinin epitope tag (VgrG3-HA) (Chromobacterium violaceum ATCC 12472) (UniProt Q7NY43).
T1 sequence: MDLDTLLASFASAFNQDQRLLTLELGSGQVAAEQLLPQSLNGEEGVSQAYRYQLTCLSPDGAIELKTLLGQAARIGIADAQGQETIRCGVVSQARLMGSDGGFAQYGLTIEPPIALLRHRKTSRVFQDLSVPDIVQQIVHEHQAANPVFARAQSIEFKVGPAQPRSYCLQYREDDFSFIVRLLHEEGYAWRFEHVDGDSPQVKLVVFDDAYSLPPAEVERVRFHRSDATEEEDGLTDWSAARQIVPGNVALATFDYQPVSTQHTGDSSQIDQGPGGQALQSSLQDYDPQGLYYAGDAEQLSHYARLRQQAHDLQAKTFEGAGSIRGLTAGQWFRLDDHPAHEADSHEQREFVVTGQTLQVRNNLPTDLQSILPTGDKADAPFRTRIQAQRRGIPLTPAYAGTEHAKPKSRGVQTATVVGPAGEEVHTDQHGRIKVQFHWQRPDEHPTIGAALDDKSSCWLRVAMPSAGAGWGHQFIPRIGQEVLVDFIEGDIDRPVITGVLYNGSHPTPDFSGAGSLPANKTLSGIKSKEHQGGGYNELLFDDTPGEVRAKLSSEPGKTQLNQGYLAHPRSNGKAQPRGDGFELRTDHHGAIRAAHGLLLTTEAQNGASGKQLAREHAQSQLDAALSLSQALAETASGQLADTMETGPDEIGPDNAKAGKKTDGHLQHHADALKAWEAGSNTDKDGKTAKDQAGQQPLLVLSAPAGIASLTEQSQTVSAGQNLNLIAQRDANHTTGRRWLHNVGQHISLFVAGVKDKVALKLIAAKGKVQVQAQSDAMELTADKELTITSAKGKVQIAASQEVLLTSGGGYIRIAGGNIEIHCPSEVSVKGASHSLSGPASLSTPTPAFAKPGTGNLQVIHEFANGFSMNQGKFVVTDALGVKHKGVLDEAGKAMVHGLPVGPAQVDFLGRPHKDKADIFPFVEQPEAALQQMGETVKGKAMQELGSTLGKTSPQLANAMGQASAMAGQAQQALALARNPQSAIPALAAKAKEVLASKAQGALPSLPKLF
In words: affinity purification with mass spectrometry; VgrG3-HA precipitated with HA-tag rabbit mAb magnetic beads from the soluble fraction of C. violaceum vgrG3-HA cells (untagged wild type as control); 16 h at 4 °C; 20 mM Tris-Cl pH 7.5, 150 mM NaCl, 0.5 mM EDTA, 0.1% Triton X-100; label-free quantitative MS, biological triplicates.

B1: DUF4123 domain-containing protein Tap-1 (CV_3987) (protein, UniProt Q7NQZ8 1-291)
chain: MYFAMDKGDVASLANALAEQIDASPMEWNWYALMDAGFDYNHRPLQLATANWPLYFQPEWGELRAVSPLLIDCPRQNNAIPAKLLRHCQGRPMLGFVASVLDVETLRDIWQRSLSLTTADGQPYILRFADTRIAATLSQTLSPPSWRRLCAPLTHWLIIDRAGTLQALDLAPSHLAVDEKDSWELTEPELAGLLRSAEPDALANRLSQDFAELLPASGAFLHHCLQRSCAALEEHHIENAPDQLMLAVAACLSQGRILDDPRLSQVLQSHALQKDGLGENLASLLDDISAL
Take B1: the binding entry is given as “binds”.
